Measurements from paper PMC9827685.
No constants are given. Whether binding was seen depends on the method and setting. In cells and extracts the contact can be indirect. Some entries that bind do so weakly or less than the wild type.

Amino acid sequences for entries named in this document (tags omitted). Residues count along the entry.
UniProt P23443: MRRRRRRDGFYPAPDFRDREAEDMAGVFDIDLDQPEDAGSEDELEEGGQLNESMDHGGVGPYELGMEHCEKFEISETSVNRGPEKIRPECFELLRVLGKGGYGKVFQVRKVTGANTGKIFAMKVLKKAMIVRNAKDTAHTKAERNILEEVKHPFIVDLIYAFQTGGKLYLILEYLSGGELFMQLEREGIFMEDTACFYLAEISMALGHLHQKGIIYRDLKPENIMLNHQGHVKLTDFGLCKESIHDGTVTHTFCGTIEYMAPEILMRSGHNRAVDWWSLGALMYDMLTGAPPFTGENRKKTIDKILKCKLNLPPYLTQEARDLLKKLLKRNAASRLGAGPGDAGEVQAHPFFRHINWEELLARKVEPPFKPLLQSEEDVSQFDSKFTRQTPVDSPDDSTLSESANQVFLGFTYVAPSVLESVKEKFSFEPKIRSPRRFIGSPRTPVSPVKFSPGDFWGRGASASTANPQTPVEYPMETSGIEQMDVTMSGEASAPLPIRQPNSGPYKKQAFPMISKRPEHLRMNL
UniProt P19490, residues 19-907: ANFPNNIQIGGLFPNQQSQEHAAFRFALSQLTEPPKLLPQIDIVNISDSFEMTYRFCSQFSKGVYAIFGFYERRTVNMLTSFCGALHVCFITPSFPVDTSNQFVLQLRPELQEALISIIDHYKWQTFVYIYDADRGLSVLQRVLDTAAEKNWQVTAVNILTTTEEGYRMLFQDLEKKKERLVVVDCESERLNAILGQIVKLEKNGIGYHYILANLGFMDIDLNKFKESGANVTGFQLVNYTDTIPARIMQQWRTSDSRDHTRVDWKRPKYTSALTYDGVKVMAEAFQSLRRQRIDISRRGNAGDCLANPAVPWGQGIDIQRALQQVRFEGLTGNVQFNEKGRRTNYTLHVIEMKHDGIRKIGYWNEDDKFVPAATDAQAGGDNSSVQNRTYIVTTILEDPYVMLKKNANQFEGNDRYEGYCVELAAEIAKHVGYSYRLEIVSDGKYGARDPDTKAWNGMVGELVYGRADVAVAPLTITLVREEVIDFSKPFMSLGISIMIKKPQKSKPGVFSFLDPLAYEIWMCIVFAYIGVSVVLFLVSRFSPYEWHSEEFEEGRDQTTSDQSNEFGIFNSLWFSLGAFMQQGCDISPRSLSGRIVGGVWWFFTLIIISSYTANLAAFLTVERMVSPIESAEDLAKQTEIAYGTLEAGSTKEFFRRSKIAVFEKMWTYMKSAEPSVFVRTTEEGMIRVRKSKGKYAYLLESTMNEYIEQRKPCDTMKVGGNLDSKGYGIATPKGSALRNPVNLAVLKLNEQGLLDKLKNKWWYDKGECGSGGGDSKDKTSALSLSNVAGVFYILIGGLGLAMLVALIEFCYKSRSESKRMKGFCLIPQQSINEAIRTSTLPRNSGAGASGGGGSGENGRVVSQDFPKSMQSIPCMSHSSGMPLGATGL
UniProt P24588: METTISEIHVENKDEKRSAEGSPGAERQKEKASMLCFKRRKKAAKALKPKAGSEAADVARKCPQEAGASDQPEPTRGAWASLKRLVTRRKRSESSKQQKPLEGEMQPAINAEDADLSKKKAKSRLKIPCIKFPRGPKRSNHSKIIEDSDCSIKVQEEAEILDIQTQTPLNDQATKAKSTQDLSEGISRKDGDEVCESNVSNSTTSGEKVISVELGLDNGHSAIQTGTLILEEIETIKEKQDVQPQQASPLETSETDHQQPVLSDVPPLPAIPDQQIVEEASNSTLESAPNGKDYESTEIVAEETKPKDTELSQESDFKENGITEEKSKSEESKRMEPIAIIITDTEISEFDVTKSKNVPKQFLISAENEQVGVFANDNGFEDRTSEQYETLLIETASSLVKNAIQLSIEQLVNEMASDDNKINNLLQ
UniProt Q9Z2W9, residues 23-888: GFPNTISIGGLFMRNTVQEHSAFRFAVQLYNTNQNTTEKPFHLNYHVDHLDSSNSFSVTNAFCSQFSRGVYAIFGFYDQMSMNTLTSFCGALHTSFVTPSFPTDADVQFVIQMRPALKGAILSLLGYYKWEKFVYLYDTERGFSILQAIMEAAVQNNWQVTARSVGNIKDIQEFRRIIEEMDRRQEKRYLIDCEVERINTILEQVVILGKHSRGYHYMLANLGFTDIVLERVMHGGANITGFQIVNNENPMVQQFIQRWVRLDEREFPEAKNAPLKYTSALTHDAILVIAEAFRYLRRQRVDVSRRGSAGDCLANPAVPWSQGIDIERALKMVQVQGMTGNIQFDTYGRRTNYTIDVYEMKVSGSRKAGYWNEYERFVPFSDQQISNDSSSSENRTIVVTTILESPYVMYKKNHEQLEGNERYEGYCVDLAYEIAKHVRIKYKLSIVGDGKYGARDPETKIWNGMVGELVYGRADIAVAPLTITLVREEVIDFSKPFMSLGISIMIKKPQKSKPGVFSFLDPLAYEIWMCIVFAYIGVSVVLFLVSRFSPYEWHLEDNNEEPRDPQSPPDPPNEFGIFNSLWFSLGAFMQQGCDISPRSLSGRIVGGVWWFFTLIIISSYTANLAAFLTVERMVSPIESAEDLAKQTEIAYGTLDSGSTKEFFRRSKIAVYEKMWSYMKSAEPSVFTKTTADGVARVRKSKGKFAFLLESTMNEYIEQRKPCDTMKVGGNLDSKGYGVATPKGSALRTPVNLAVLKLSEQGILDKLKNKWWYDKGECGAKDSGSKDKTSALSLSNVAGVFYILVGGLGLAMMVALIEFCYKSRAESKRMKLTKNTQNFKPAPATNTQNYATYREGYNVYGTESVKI
UniProt P19491, residues 22-883: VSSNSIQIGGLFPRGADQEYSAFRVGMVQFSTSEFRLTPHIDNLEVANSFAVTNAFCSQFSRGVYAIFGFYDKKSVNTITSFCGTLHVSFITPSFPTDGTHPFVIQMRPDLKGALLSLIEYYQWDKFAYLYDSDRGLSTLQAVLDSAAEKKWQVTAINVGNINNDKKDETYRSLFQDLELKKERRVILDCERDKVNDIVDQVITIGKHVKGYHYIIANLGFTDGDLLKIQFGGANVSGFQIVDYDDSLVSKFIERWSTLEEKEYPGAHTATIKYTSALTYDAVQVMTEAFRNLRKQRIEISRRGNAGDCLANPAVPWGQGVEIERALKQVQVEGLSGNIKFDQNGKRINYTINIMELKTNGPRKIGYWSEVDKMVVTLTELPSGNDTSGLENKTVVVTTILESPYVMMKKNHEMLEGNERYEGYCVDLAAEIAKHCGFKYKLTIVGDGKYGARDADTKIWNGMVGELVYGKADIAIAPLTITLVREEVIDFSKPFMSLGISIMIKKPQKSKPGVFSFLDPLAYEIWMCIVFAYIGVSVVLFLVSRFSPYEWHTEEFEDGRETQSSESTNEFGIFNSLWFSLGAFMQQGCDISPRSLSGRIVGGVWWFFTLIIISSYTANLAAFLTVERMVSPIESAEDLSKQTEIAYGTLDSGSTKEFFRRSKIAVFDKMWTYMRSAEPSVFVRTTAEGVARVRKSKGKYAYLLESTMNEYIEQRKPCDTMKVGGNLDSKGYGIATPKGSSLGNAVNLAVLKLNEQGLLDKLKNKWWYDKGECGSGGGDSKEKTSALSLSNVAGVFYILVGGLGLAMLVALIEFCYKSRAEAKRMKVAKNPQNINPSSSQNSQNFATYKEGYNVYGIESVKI

How the values were obtained:
[1] = target: Flag-p85S6K (85-kDa isoform of ribosomal protein S6 kinase 1) (UniProt P23443); assay: co-IP; HEK293 cells co-transfected with AKAP79 and the tagged proteins (Flag-p85S6K or Flag-p70S6K, Myc-GluA1 or Myc-GluA2); Pierce IP lysis buffer, anti-Flag or anti-c-Myc overnight at 4 °C, protein A/G agarose; for PKA with or without overexpressed p85S6K
[2] = target: Myc-GluA1 (GluA1 subunit of AMPA receptor) (UniProt P19490); assay: as above
[3] = target: Flag-p85S6K (85-kDa isoform of ribosomal protein S6 kinase 1) (UniProt P23443); assay: co-IP; extracts of HEK293 cells transfected with Flag-p85S6K (or empty vector) mixed with protein lysates from mouse hippocampus, then immunoprecipitation and immunoblot

Row | Substance | binding [1] | binding [2] | binding [3]
1 | AKAP79-GFP (A-kinase anchoring protein 79) (from UniProt P24588 1-427) | binds | binds | 
2 | GluA3 subunit of AMPA receptor, endogenous in mouse hippocampus (from UniProt Q9Z2W9 23-888) |  |  | no binding
3 | Myc-GluA2 (GluA2 subunit of AMPA receptor) (from UniProt P19491 22-883) | no binding |  | 
